This assay concerns the target α-tubulin acetyltransferase 1 (α-TAT1), Myc-tagged (UniProt Q5SQI0). As to the kind of experiment: co-IP; proteins co-transfected in HEK293T; IP with anti-c-Myc tag affinity gel overnight at 4°C; wash buffer with 500 mM NaCl, 1% Triton X-100.

Protein sequences, listed by entry. Tags and fused reporters are not part of them.
UniProt Q5SQI0: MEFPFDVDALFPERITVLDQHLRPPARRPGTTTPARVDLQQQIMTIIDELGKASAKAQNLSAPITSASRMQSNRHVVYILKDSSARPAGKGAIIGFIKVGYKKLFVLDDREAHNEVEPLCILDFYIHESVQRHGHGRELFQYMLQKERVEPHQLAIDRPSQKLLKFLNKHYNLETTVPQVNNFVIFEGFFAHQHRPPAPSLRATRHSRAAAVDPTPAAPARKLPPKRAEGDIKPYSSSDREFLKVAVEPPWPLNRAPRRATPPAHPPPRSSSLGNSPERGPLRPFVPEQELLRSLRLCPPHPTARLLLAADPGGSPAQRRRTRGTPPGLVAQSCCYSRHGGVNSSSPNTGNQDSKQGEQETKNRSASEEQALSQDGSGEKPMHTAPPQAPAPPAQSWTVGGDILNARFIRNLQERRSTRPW
UniProt P08670: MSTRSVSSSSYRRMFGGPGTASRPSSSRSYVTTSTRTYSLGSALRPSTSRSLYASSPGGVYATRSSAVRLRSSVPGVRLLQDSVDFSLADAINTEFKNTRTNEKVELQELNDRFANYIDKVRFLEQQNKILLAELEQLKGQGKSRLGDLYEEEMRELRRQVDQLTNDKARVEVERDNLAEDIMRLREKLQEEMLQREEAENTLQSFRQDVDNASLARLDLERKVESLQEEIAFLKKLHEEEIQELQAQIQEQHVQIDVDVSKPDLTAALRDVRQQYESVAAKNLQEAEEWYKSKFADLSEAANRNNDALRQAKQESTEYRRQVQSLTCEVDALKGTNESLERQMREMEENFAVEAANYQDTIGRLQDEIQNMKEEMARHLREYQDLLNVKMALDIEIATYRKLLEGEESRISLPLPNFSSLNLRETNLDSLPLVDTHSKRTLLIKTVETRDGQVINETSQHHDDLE

No constants are given. Whether binding was seen depends on the method and setting. In cells and extracts the contact can be indirect. Some results given as binding are weak or reduced against the parent protein; the word gives no strength.

Here are results for one substance from article PMC9524669.

“FLAG-tagged vimentin (VIM) (from UniProt P08670 1-466)”: the binding entry is given as “binds”.
